Among all 300,000 compounds or so, about 5,400 (1.8%) were called active. Inconclusive results, whose numbers are uncertain, are shown with a selection of clear calls. The call rests on the fitted dose curve; tested in HEK293 cells. Potencies of inconclusive entries are doubtful fits and often do not repeat.
Assay: qHTS for inhibitors of binding or entry into cells for Marburg Virus
Conditions: Marburg virus pseudotyped entry inhibition, cell reporter; activity change, negative = inhibition: at 37.8 µM (top of the series) unless noted
On the % scale 0 is the no-effect control and ±100 the full control effect; potency means the concentration at half of the fitted maximal effect.

Question: With `c1ccc(-n2nnc3cnccc32)cc1` as the molecule, how does the “activity change, negative = inhibition” value read?
Answer: The value was inactive: 10.6%.

Question: With `CCCCN(C)CCNC(=O)c1cc(-c2cccnc2)nc2ccc(S(=O)(=O)N3CCC(C)CC3)cc12` as the molecule, how does the Potency read?
Answer: Its Potency is inconclusive: 35.5 µM [inhibitor, single point].

Question: For `Cc1c(NC(=O)c2nn3c(c2Br)NC(c2ccccc2)CC3C(F)(F)F)c(=O)n(-c2ccccc2)n1C` (stereo not drawn), which Potency is on record?
Answer: The Potency was inconclusive: 3.16 µM [activator, partial curve].

Question: For `CCOc1ccccc1NC(=O)CN1CCC(NC(=O)c2ccccc2)CC1`, which Potency is on record?
Answer: The Potency was inconclusive: 0.126 µM [inhibitor, full curve, poor fit].

Question: For `O=C1c2ccccc2C(=O)c2c1cccc2-n1nnc2ccccc21`, which “activity change, negative = inhibition” value is on record?
Answer: The value was inactive: 3.06% [at 46.1 µM].

Question: For `Cc1nn(Cc2ccccc2Cl)c(C)c1NC(=O)c1noc2c1CCCCC2`, which Potency is on record?
Answer: The Potency was inconclusive: 18.3 µM [inhibitor, single point].

Question: Which “activity change, negative = inhibition” value does the source give for `OC(COCc1ccccc1)CN1CCCC1` (stereo not drawn) here?
Answer: The value was inactive: 2.49%.

Question: For `COc1cccc2sc(N3CCN(C(=O)C4COc5ccccc5O4)CC3)nc12` (stereo not drawn), which Potency is on record?
Answer: Its Potency is inconclusive: 11.2 µM [inhibitor, partial curve, poor fit].

Question: Which Potency does the source give for `CCCCn1c(N)c(N(CC(C)C)C(=O)CCCSc2nncs2)c(=O)[nH]c1=O` here?
Answer: The Potency was inconclusive: 2.24 µM [activator, single point].

Question: Which Potency does the source give for `N#Cc1ccc(CN2CCN(C(=O)CNC(=O)Cc3cccc4ccccc34)CC2)cc1` here?
Answer: The Potency was inconclusive: 3.55 µM [inhibitor, full curve].

Question: With `CN(C)CCCCSC(=N)N` as the molecule, how does the Potency read?
Answer: The Potency was inconclusive: 4.47 µM [inhibitor, full curve].

Question: With `CN1CCN(C(=O)c2cnn(-c3ccccc3)c2NC(=O)c2ccccc2F)CC1` as the molecule, how does the Potency read?
Answer: The Potency was inconclusive: 7.94 µM [activator, single point].

Question: Which Potency does the source give for `COc1ccc(OCc2cn3c(C)cc(C)nc3n2)cc1` here?
Answer: The Potency was inconclusive: 0.398 µM [activator, full curve, poor fit].

Question: With `COc1ccc2c(c1)C[C@@H](C)O[C@]21C(=O)Nc2ccccc21` as the molecule, how does the “activity change, negative = inhibition” value read?
Answer: The value was inactive: 70.8% [at 14.2 µM].

Question: With `O=C(CSc1nnc(-c2c[nH]c3ccccc23)o1)N1CCCCC1` as the molecule, how does the Potency read?
Answer: Its Potency is inconclusive: 32.6 µM [inhibitor, single point].

Question: With `CC(C)c1ccc(NC(=O)c2ccc(NS(C)(=O)=O)cc2)cc1` as the molecule, how does the Potency read?
Answer: The Potency was inconclusive: 35.5 µM [inhibitor, single point].

Question: Which “activity change, negative = inhibition” value does the source give for `COc1ccc(Cn2nnnc2C(c2ccncc2)N2CCOCC2)cc1` (stereo not drawn) here?
Answer: The value was inactive: 6.64%.

Question: With `COCCCNC(=O)c1cc(-c2cccnc2)nc2ccccc12` as the molecule, how does the Potency read?
Answer: The Potency was “inactive”.

Question: For `CC1(C(=O)N/N=C/c2cc3c(cc2Br)OCO3)CC1(Br)Br` (stereo not drawn), which Potency is on record?
Answer: The Potency was inconclusive: 11.2 µM [inhibitor, partial curve, poor fit].

Question: With `O=C(NC1CCCCCC1)c1cccnc1Sc1ccccc1` as the molecule, how does the Potency read?
Answer: Its Potency is inconclusive: 6.31 µM [activator, single point].

Question: Which Potency does the source give for `CCOc1ccc(S(=O)(=O)N2CCC(C(N)=O)CC2)c2ccccc12` here?
Answer: The Potency was inconclusive: 35.5 µM [inhibitor, single point].

Question: For `COc1ccc(OC)c(NC(=O)c2csnn2)c1`, which “activity change, negative = inhibition” value is on record?
Answer: Its value is inactive: 11.2% [at 46.1 µM].

Question: With `O=C(NC1=C(Nc2ccc(Cl)cc2)C(=O)c2ccccc2C1=O)c1ccccc1` as the molecule, how does the Potency read?
Answer: The Potency was inconclusive: 5.62 µM [activator, single point].

Question: With `O=C1Nc2cc(Br)ccc2C1(O)c1ccccc1O` (stereo not drawn) as the molecule, how does the Potency read?
Answer: The Potency was inconclusive: 5.62 µM [inhibitor, single point].

Question: With `COc1ccc(CNC(=O)c2ccc3c(c2)N(Cc2ccccc2)C(=O)c2ccccc2S3(=O)=O)cc1` as the molecule, how does the Potency read?
Answer: The Potency was inconclusive: 10 µM [inhibitor, partial curve, poor fit].

Question: With `COc1ccc(-c2cc3nc(C4CCN(C(=O)OC(C)(C)C)CC4)c(C(=O)Nc4cc(Cl)cc(Cl)c4)cn3n2)cc1` as the molecule, how does the “activity change, negative = inhibition” value read?
Answer: The value was inactive: -0.374% [at 46.1 µM].

Question: Which “activity change, negative = inhibition” value does the source give for `CCOc1ccc2oc(C(=O)NCC(c3ccco3)N(C)C)c(C)c2c1` (stereo not drawn) here?
Answer: The value was inactive: -3.44%.

Question: With `CCOc1ccc(C(=O)NC(C(=O)NCCc2ccc(OC(F)F)cc2)C(C)C)cc1` (stereo not drawn) as the molecule, how does the Potency read?
Answer: The Potency was inconclusive: 8.91 µM [inhibitor, partial curve, poor fit].

Question: Which Potency does the source give for `CCOC(=O)N/N=C/c1ccc(N(CC)CC)cc1O` here?
Answer: Its Potency is inconclusive: 0.501 µM [inhibitor, full curve].

Question: Which Potency does the source give for `NC(=O)CSc1nc2c(c(=O)n1-c1ccccc1)C1(CCCCC1)Cc1ccccc1-2` here?
Answer: The Potency was inconclusive: 35.5 µM [inhibitor, single point].

Question: Which “activity change, negative = inhibition” value does the source give for `CCc1sc(C(=O)NCc2ccccc2)cc1C` here?
Answer: The value was inactive: 10.9% [at 46.1 µM].

Question: For `CCC(C)c1ccccc1OCC(=O)NN1C(=O)c2ccccc2C1=O` (stereo not drawn), which Potency is on record?
Answer: Its Potency is inconclusive: 1 µM [inhibitor, full curve, poor fit].

Question: For `Cc1ccc2c(c1)cc(CN(Cc1cccs1)C(=O)c1ccco1)c1nnnn12`, which Potency is on record?
Answer: Its Potency is inconclusive: 13 µM [inhibitor, partial curve].

Question: With `COc1ccc(C(C)(C)NC(=O)C2CCC(=O)N(C3CCCC3)C2)cc1OC` (stereo not drawn) as the molecule, how does the “activity change, negative = inhibition” value read?
Answer: The value was inactive: 15.9%.

Question: Which Potency does the source give for `CC(=O)Oc1ccc2c(c1)C(=O)c1ccccc1CO2` here?
Answer: Its Potency is inconclusive: 10 µM [activator, partial curve].

Question: Which Potency does the source give for `CCOc1cc(CNc2ccc(O)cc2)cc(Br)c1OCc1ccccc1` here?
Answer: Its Potency is inconclusive: 22.4 µM [inhibitor, single point].

Question: Which Potency does the source give for `CCOC(=O)c1cnn(-c2ccccc2)c1-n1cccc1C(=O)C(=O)Nc1ccccc1C(F)(F)F` here?
Answer: Its Potency is inconclusive: 7.94 µM [inhibitor, partial curve, poor fit].

Question: Which activity change, negative = inhibition does the source give for `CS(=O)(=O)c1ccc(Cl)c(NC(=O)COC(=O)c2ccc(F)cc2Cl)c1` here?
Answer: The activity change, negative = inhibition was inconclusive: 7.05% [activator] [at 46.1 µM].

Question: With `CN(C)CCCN(C(=O)/C=C/c1cccs1)c1nc2c(F)cccc2s1` as the molecule, how does the Potency read?
Answer: Its Potency is inconclusive: 29.1 µM [inhibitor, single point].

Question: Which Potency does the source give for `N#Cc1ccc(Cn2cc(C(=O)c3ccco3)c3ccccc32)cc1` here?
Answer: The Potency was inconclusive: 29.1 µM [inhibitor, single point].

Question: With `COc1ccc(C(=O)NCCc2ccc(F)cc2)cc1OC` as the molecule, how does the Potency read?
Answer: The Potency was inconclusive: 1 µM [inhibitor, partial curve, poor fit].

Question: Which Potency does the source give for `CC(C)C(OC(=O)c1cc2c(s1)CCCCC2)C(=O)NC(N)=O` (stereo not drawn) here?
Answer: The Potency was inconclusive: 3.55 µM [inhibitor, single point].

Question: For `c1ccc(Cn2c(CNc3nc4ccccc4n3CCN3CCCCC3)nc3ccccc32)cc1`, which Potency is on record?
Answer: The Potency was inconclusive: 15.8 µM [inhibitor, partial curve, poor fit].

Question: With `CCCN(CCC)C(=O)Cn1c(=O)n(Cc2ccc(C(=O)NCCc3ccc(OC)c(OC)c3)cc2)c(=O)c2ccccc21` as the molecule, how does the “activity change, negative = inhibition” value read?
Answer: Its value is inactive: 9.56% [at 46.1 µM].

Question: With `Cc1ccc(N2C(=O)C3CCC(C)(C2=O)C3(C)C)cc1` (stereo not drawn) as the molecule, how does the “activity change, negative = inhibition” value read?
Answer: Its value is inactive: -8.78%.

Question: Which Potency does the source give for `S=c1[nH]nc(CCCc2n[nH]c(=S)o2)o1` here?
Answer: The Potency was “inactive”.

Question: For `Cc1ccc(NC(=S)N(CCN(C)C)Cc2cccs2)c(C)c1`, which “activity change, negative = inhibition” value is on record?
Answer: Its value is inactive: 7.27% [at 46.1 µM].

Question: With `CCOC(=O)c1[nH]c(C)c(CC(C)C)c1C` as the molecule, how does the Potency read?
Answer: Its Potency is inconclusive: 17.8 µM [inhibitor, single point].

Question: With `Cc1occc1C(=O)Nc1cccc(Cn2cccn2)c1` as the molecule, how does the Potency read?
Answer: The Potency was inconclusive: 1.46 µM [inhibitor, partial curve, poor fit].

Question: Which Potency does the source give for `Cc1ccc(S(=O)(=O)NCCc2cc3ccc(C)c(C)c3[nH]c2=O)cc1` here?
Answer: Its Potency is inconclusive: 15.8 µM [inhibitor, single point].

Question: Which Potency does the source give for `Cc1ccc(-n2c(CCC(=O)O)ccc2-c2cccs2)cc1` here?
Answer: The Potency was inconclusive: 6.51 µM [inhibitor, single point].

Question: For `O=C(CCN1C(=O)/C(=C/c2ccccc2Cl)SC1=S)N1CCCC1`, which “activity change, negative = inhibition” value is on record?
Answer: Its value is inactive: -15.3% [at 46.1 µM].

Question: Which Potency does the source give for `CC(CCN(C)C)OC(=O)c1ccc(C(C)c2ccccc2)o1` (stereo not drawn) here?
Answer: The Potency was inconclusive: 20.6 µM [inhibitor, partial curve, poor fit].

Question: Which “activity change, negative = inhibition” value does the source give for `Clc1ccccc1Cn1nnc(-c2cccs2)n1` here?
Answer: The value was inactive: 26.6%.

Question: Which “activity change, negative = inhibition” value does the source give for `Oc1ccc(N2CCN(Cc3c(-c4ccccc4)nc4ccccn34)CC2)cc1` here?
Answer: Its value is inactive: -15.8% [at 46.1 µM].

Question: Which Potency does the source give for `O=C(Cc1cccs1)Nc1ccc2c(c1)C(=O)OC2` here?
Answer: The Potency was inconclusive: 1.83 µM [activator, full curve, poor fit].

Question: Which Potency does the source give for `O=C(c1ccc(F)cc1)[C@@H]1[C@@H](C(=O)c2ccccc2)[C@@]2(C(=O)Nc3ccccc32)[C@H]2c3ccccc3C=CN12` here?
Answer: The Potency was inconclusive: 32.6 µM [inhibitor, single point].

Question: With `Cc1ccc(-c2csc(NC(=O)c3ccc(F)cc3)c2C(=O)O)cc1` as the molecule, how does the Potency read?
Answer: Its Potency is inconclusive: 10 µM [inhibitor, partial curve].

Question: With `COC(=O)c1ccc(NC(=O)c2ccccc2-c2ccccc2C(=O)O)cc1` as the molecule, how does the Potency read?
Answer: Its Potency is inconclusive: 16.4 µM [inhibitor, partial curve, poor fit].

Question: Which Potency does the source give for `Cn1c(-c2ccc(F)cc2)cnc1SCC(=O)N1CCCCC1` here?
Answer: The Potency was inconclusive: 11.2 µM [inhibitor, single point].

Question: With `Cc1ccc(NC(=O)c2cc(C(C)(C)C)nn2Cc2ccccc2)cc1` as the molecule, how does the Potency read?
Answer: Its Potency is inconclusive: 3.16 µM [inhibitor, full curve, poor fit].

Question: Which Potency does the source give for `CC1(C)OC2C(CO)OC(n3cnc4c(=S)nc[nH]c43)C2O1` (stereo not drawn) here?
Answer: The Potency was inconclusive: 5.62 µM [inhibitor, single point].

Question: For `Cc1ccc(S(=O)(=O)c2nc(-c3ccccc3F)oc2N2CCCCC2)cc1`, which Potency is on record?
Answer: The Potency was inconclusive: 35.5 µM [inhibitor, single point].

Question: For `O=C(COC(=O)c1ccc(S(=O)(=O)NCc2ccco2)cc1)NC1CCCCCC1`, which “activity change, negative = inhibition” value is on record?
Answer: The value was inactive: 1.35%.

Question: For `O=[N+]([O-])c1cc2c(cc1/C=N\NS(=O)(=O)c1ccccc1)OCO2`, which Potency is on record?
Answer: Its Potency is inconclusive: 3.66 µM [inhibitor, partial curve].

Question: For `O=C(CN1CCN(C(=O)c2ccccc2)CC1)Nc1ncc(Br)cc1Br`, which “activity change, negative = inhibition” value is on record?
Answer: The value was inactive: 6.48%.

Question: Which Potency does the source give for `COc1ccccc1N(Cc1ccccc1)S(=O)(=O)c1cccc(C(=O)Nc2ncccc2C)c1` here?
Answer: Its Potency is inconclusive: 35.5 µM [inhibitor, single point].

Question: Which Potency does the source give for `Cc1ccc(NC2=C(c3ccc(C(F)(F)F)cc3)C(=O)c3ccccc32)cc1C` here?
Answer: Its Potency is inconclusive: 11.2 µM [activator, partial curve, poor fit].

— PubChem BioAssay AID540276 (National Center for Advancing Translational Sciences (NCATS), 2011)
